The supplement of paper PMC12889115
The list shows a part of the results. These are raw signals, not scaled to a control.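 Primary screen: polymyxin B was added at a level permeabilizing Salmonella outer membranes while sparing inner membranes. DMSO wells, both with and without polymyxin B, established maximum growth. Plate-to-plate variation meant each plate was ranked on its own, and the lowest-OD600 compounds were selected as hits.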

System: Salmonella enterica serovar Typhimurium SL1344
Test: bacterial growth OD600 after 18 h with compound and polymyxin B; higher = more bacterial growth (less inhibition)
Details: 50 µM, Mueller-Hinton broth

Structure (SMILES)	bacterial growth OD600 (polymyxin B 1 µg/mL)	bacterial growth OD600 (polymyxin B 0.75 µg/mL)
CCOC(=O)C1(Cc2ccccc2F)CCCN(C(=O)c2ccc3nccnc3c2)C1 (stereo not given)	0.978	
CCC1CN(CCNC(=O)COc2ccc(C)cc2)Cc2cc(OC)ccc2O1 (stereo not given)		0.716
COc1cc(CC2(CCC(=O)NCCc3nc(-c4ccccc4)cs3)CCC(=O)N2)ccc1F (stereo not given)		0.737
O=C(NCc1ccco1)c1ccccc1OC1CCN(Cc2ccccn2)CC1	0.884	
COc1cccc(OCC(O)CNC(=O)C2CC(=O)c3sc(NC(=O)c4ccncc4)nc3C2)c1 (stereo not given)		0.836
c1coc(CCNc2nc3nonc3nc2N2CCSCC2)c1		0.722
CC(C)C1=NOC(C(=O)N2CCc3[nH]nc(-c4ccc(F)c(F)c4)c3C2)C1 (stereo not given)		0.757
COc1cc(CN2CCOc3ccc(C(C)(O)COc4ccccc4)cc3C2)ccc1F (stereo not given)		0.014
COc1ccc(-c2nc(CN(C)Cc3cccc(C(F)(F)F)c3)c(C)o2)cc1		0.007
COc1cc(OC)nc(N2CCc3[nH]nc(-c4ccccc4)c3C2)n1		0.406
COc1cccc(OCC(O)CNC(=O)CCC2(Cc3ccc(F)c(OC)c3)CCC(=O)N2)c1 (stereo not given)		0.85
CCOC(=O)C1(Cc2ccc(F)cc2)CCCN(C(=O)C(C)C)C1 (stereo not given)	0.949	
COc1ccc(-n2ccnc2CN(C)C2CCCN(C3Cc4ccccc4C3)C2)cc1 (stereo not given)	0.77	
O=C(CCc1ccc2c(c1)OCO2)N1CCC2(CCCN(CC3CC3)C2=O)C1 (stereo not given)	1.04	
CN(CC1Cc2ccccc2O1)C(=O)CCn1nnnc1CN1CCOCC1 (stereo not given)	1.16	
O=C(CCC(=O)c1ccc(F)cc1)NC1CCCN(Cc2ccccc2F)C1 (stereo not given)	0.969	
COCCn1cnc2cc(NC(=O)C3CCCCC3)cc(C(=O)NCCSc3nncn3C)c21		0.976
O=C(CC1(c2cccc(C(F)(F)F)c2)CC(=O)N(C2CC2)C1=O)N1CCCCC1c1cccnc1 (stereo not given)		0.856
CN(CC1CCN(CCc2ccccc2F)CC1)C(=O)c1ccc2ncccc2c1	0.735	
CN(CC1CCCN(CCc2ccc(Cl)cc2)C1)C(=O)c1ccc(F)cc1 (stereo not given)	0.777	

Two of the compounds above, bar-delimited:
Structure (SMILES) | bacterial growth OD600 (polymyxin B 1 µg/mL) | bacterial growth OD600 (polymyxin B 0.75 µg/mL)
COc1cc(OC)nc(N2CCc3[nH]nc(-c4ccccc4)c3C2)n1 |  | 0.406
COc1cccc(OCC(O)CNC(=O)CCC2(Cc3ccc(F)c(OC)c3)CCC(=O)N2)c1 (stereo not given) |  | 0.85
